Among the data in article PMC9166791 are binding values, retold here.

Amino acid sequences for entries named in this document (tags omitted). A change or cut given only in a name is not applied to a line headed by its entry.
UniProt Q9ES97: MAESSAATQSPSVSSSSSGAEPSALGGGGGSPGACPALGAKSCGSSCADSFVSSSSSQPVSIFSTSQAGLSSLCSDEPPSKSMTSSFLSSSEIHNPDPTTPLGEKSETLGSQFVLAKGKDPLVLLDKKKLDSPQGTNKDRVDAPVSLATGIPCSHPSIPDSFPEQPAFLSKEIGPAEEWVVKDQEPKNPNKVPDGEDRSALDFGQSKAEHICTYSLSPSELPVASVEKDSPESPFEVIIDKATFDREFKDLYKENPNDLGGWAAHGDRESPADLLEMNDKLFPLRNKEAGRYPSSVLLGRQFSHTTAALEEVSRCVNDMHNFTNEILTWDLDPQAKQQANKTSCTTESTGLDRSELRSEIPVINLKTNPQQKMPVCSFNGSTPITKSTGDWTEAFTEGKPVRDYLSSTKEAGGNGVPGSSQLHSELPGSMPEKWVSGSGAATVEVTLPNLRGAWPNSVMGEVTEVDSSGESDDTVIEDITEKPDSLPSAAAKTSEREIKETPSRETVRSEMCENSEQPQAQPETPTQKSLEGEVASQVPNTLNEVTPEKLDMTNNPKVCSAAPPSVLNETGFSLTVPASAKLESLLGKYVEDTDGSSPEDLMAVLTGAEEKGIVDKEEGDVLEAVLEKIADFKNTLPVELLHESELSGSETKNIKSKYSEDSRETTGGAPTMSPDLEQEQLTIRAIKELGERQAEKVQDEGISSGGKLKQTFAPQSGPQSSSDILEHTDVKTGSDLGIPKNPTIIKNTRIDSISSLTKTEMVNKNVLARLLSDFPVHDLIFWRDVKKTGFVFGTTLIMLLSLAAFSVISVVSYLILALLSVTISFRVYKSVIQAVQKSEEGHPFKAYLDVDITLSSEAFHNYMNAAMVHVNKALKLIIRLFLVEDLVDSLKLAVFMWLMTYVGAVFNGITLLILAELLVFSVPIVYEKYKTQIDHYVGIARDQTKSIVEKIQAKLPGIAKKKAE

The target of the assay is Reticulon 3 (RTN3) (mouse (endogenous in renal tubular epithelial cells of WT mice)) (UniProt Q9ES97). Put plainly: affinity purification with mass spectrometry; co-IP from total proteins of renal tubular epithelial cells of WT mice, followed by mass spectrometric analysis.

Results are given in words; binding and its absence hold for the method and conditions named. In cells and extracts the contact can be indirect. These calls come from enrichment with a bait or labelling near it, and not all partners need be listed.

B1: GC-Rich Promoter Binding Protein 1 (GPBP1) (protein, UniProt Q6NXH3 1-473)
chain: MAQHDFAPAWLNFPTPPSSTKSSLNFEKHSENFSWTENRYDVSRRRHNSSDGFDSGIGRPNGGNFGRKEKNGWRTHGRNGTENINHRGGYHGGNSRSRSSIFHSGKSQGLHENSIPDNETGRKEDKRERRQFEAEDFPSLNPEYEREPNQNKSLAAGVWDYPPNPKSRTPRMLVIKKGNTKDLQLSGFPVAGNLQSQPVKNGTGPSVYKGLVPKPAVPPTKPTQWKSQTKENKVGTSFSHESTYGVGNFNTFKSTAKNISPSTNSVKECNRSNSSSPVDKLNQQPRLTKLTRMRSDKKSEFLKALKRDRVEEEHEDESHAGSEKDDDSFNLHNSNTTHQERDINRNFDENEIPQENGNASMISQQIIRSSTFPQTDVLSSSLEAEHRLLKEMGWQEDSENDETCAPLTEDEMREFQVISEQLQKNGLRKNGILKNGLICDFKFGPWKNSTFKPTIENDDTETSSSDTSDDDDV
With B1, the binding result was “binds”.
